Results: the supplement of paper PMC10849652
Some of the results follow.

Amino acid sequences for entries named in this document (tags omitted). A change or cut given only in a name is not applied to a line headed by its entry.
UniProt P30740: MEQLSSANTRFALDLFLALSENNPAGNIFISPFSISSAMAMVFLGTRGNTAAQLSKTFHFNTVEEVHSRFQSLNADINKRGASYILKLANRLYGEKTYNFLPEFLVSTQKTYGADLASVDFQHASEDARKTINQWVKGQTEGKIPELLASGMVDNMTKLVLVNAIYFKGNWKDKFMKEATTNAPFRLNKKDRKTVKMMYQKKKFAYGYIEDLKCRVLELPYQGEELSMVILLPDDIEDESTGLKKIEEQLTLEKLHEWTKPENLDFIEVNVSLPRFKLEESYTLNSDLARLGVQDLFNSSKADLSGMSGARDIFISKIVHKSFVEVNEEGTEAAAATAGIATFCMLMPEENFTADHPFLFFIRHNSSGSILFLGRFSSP
UniProt Q99442: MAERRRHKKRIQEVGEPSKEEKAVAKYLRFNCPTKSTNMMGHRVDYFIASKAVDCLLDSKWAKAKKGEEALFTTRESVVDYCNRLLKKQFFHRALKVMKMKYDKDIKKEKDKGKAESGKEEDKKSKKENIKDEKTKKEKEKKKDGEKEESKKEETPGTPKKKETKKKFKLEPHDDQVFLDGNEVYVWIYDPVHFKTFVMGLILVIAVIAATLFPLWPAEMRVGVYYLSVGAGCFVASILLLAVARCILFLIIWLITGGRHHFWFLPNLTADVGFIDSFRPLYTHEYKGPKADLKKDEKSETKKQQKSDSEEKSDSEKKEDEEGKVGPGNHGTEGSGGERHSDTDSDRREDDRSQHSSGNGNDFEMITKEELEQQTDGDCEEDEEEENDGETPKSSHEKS
UniProt O43765: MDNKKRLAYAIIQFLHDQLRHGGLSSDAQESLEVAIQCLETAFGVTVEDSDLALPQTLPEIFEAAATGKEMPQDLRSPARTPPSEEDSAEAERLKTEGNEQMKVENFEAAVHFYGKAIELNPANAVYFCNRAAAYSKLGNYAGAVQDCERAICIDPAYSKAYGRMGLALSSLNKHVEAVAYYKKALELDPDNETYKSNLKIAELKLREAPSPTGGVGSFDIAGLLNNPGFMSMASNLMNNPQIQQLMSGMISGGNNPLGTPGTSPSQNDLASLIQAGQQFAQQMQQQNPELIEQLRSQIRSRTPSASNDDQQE
UniProt Q9NPR2: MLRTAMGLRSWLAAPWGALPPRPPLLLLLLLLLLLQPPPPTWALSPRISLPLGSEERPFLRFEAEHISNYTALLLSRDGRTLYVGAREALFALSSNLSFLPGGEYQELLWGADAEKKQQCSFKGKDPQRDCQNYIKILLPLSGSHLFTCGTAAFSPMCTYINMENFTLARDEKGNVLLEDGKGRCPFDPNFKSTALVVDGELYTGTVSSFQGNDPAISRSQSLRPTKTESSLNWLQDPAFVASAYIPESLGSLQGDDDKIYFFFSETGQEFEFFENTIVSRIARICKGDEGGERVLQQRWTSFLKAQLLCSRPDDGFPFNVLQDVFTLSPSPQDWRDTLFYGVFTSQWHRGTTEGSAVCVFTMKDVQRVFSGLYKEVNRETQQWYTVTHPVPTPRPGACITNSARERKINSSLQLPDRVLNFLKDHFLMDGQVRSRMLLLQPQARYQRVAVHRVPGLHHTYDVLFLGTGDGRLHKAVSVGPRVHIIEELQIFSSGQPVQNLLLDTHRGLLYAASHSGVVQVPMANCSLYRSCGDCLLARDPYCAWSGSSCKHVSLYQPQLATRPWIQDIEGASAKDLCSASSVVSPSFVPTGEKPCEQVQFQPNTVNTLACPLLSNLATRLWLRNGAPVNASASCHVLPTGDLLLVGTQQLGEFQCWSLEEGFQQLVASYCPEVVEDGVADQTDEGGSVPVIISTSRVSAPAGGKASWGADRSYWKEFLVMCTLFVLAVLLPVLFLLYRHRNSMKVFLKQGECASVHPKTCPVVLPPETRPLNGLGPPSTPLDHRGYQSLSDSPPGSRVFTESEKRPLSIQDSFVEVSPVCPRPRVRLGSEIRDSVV
UniProt Q9HD40: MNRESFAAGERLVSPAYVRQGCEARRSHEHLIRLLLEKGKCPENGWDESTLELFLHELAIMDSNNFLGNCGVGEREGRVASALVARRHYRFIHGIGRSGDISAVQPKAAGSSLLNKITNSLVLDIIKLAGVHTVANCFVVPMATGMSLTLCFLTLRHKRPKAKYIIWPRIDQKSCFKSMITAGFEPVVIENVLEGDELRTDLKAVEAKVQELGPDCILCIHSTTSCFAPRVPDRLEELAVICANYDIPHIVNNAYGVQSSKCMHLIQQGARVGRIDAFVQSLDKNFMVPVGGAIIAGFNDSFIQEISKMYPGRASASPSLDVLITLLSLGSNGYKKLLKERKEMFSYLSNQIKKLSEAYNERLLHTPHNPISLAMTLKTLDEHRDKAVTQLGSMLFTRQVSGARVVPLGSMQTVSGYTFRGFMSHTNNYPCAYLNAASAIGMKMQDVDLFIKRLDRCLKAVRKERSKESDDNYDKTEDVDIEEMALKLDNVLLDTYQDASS
UniProt Q99961: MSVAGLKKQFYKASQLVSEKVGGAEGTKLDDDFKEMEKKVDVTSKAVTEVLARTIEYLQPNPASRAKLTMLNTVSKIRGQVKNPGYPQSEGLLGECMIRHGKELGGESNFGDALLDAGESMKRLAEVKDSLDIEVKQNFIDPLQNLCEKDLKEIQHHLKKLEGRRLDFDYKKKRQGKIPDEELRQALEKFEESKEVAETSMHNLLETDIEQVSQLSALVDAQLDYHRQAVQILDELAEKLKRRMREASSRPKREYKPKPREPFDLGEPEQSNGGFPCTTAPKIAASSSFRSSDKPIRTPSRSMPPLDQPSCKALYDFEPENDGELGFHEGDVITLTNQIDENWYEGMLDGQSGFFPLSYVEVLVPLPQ
UniProt O95562: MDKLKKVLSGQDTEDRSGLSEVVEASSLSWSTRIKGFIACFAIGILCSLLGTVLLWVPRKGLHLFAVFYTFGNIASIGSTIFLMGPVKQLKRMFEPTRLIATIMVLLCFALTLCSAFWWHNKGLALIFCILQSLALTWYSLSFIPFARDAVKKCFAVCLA
UniProt Q9H9S3, whole entry, looked up: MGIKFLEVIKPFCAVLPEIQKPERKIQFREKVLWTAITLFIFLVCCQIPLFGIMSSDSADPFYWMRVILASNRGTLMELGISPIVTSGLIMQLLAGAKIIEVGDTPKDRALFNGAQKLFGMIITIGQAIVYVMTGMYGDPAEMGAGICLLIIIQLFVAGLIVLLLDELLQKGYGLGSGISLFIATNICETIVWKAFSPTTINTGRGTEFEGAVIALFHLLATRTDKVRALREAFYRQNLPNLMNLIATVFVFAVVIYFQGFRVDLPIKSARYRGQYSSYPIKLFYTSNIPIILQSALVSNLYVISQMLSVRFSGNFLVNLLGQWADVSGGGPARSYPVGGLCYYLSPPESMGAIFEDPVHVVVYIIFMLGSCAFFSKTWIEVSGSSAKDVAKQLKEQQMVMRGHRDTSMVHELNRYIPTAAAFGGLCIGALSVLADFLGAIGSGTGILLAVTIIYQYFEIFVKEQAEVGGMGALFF
UniProt Q96ST3: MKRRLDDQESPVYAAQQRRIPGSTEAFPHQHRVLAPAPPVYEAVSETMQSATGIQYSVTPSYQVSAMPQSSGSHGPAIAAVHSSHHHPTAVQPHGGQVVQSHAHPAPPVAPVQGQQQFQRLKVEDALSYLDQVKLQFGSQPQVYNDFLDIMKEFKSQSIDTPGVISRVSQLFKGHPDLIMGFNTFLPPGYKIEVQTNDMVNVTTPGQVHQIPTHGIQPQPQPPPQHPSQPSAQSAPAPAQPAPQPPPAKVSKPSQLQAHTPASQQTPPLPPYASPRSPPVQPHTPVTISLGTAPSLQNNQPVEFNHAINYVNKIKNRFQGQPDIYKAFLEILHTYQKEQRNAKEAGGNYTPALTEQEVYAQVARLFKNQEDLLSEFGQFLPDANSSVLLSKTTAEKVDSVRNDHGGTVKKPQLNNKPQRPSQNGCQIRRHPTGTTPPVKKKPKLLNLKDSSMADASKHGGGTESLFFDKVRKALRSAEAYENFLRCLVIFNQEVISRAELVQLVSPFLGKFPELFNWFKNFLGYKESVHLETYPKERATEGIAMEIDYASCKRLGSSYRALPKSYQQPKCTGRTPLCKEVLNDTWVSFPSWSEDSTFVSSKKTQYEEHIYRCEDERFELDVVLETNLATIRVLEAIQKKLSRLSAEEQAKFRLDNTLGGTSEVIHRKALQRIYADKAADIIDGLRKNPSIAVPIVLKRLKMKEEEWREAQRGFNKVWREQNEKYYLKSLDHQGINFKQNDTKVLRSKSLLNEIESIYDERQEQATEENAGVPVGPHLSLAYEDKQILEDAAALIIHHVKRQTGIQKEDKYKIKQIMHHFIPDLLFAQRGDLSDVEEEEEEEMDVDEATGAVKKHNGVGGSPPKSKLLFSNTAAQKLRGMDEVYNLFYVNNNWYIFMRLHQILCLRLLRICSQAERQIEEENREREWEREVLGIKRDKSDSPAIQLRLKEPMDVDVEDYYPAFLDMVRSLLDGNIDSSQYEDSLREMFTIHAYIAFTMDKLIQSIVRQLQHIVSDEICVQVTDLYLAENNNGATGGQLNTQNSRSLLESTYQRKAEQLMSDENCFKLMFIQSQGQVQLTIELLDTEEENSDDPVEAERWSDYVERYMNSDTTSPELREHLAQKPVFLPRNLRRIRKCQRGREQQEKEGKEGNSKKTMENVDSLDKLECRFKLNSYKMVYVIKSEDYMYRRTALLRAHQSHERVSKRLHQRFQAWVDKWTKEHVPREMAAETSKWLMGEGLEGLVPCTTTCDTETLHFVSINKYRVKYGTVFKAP
UniProt Q9UJC5: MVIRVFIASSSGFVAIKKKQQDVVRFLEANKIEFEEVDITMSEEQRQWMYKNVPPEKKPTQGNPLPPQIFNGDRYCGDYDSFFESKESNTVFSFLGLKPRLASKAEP
UniProt Q9UHD8: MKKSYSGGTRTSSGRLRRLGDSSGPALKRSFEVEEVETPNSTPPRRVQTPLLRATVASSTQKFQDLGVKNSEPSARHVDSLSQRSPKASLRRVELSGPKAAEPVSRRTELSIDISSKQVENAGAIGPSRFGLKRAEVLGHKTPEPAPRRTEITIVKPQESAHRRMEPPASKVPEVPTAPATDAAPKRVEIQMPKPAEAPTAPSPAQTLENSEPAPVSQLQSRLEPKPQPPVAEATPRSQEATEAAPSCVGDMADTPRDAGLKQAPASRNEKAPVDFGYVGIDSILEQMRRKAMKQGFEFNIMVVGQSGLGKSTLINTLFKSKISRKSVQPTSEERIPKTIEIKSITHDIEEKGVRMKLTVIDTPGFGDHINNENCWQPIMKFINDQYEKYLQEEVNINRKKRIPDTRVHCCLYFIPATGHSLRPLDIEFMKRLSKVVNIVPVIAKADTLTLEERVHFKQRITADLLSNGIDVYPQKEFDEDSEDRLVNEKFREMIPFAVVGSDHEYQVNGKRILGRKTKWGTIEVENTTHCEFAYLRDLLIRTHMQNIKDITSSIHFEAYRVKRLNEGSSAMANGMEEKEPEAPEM
UniProt Q8IW75: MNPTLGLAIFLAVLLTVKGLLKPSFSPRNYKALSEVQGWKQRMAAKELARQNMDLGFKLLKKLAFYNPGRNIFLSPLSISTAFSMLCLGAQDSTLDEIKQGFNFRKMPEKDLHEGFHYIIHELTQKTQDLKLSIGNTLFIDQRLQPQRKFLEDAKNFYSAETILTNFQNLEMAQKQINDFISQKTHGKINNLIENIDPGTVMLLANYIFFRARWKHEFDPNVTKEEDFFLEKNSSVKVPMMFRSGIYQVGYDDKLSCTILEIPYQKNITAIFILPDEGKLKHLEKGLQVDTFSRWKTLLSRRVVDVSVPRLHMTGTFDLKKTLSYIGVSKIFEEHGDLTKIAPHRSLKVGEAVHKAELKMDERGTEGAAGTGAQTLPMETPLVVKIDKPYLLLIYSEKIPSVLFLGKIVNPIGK
UniProt O43236: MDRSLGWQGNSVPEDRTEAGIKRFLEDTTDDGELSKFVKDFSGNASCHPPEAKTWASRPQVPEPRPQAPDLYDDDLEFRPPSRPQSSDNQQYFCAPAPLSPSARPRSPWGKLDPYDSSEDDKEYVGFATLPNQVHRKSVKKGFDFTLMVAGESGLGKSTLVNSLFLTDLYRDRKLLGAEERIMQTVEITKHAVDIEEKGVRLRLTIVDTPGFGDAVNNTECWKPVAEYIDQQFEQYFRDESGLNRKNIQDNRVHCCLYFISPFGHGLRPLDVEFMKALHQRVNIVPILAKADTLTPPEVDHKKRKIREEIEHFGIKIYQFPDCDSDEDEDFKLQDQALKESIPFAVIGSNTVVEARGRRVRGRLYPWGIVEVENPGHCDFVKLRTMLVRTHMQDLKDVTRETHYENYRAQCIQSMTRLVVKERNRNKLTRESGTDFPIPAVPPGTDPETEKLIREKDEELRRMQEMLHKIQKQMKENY
UniProt Q01105, whole entry, looked up: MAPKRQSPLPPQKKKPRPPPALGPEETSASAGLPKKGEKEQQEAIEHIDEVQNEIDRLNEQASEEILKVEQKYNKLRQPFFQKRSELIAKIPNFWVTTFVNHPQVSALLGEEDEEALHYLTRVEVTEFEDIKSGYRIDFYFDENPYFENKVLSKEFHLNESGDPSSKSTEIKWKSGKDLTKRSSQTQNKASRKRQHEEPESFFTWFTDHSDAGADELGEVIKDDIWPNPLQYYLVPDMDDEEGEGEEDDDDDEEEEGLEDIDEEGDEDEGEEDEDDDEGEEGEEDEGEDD

Key:
Assay in all cases: log2 fold change, soluble protein after heating vs DMSO (PISA); higher = thermal stabilisation; K562 cells, 10 uM, 30 min; active = over 0.2 and 3.5 SD of the protein, either way, in both replicates (recomputed)
[1] = compound: NC(=O)Nc1cc(-c2cccc(F)c2)sc1C(=O)N[C@H]1CCCNC1
Procedure, shortened: (§1)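 Quantification of soluble protein used TMTpro 16plex LC-MS/MS, with channel sums equalised. Samples were the supernatant after 21,000xg for 90 min of pooled aliquots from K562 cells (2×10^6 cells/mL) treated with 10 μM compound for 30 min, heated for 3 min over 48°C-58°C, and extracted in PBS with 0.5% NP-40 at 4°C. Values, from duplicates, describe thermal stability against control samples on a log2 fold-change scale.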

[2] = compound: NC(=O)c1cnc(N[C@@H]2CCCC[C@@H]2N)nc1Nc1cccc(-n2nccn2)c1
Procedure, shortened: as §1

[3] = compound: NC1(c2ccc(-c3nc4ccn5c(=O)[nH]nc5c4cc3-c3ccccc3)cc2)CCC1
Procedure, shortened: as §1

[4] = compound: NCC(=O)Nc1ccc(-n2nc(C(F)(F)F)cc2-c2ccc3c(ccc4ccccc43)c2)cc1
Procedure, shortened: as §1

entinostat = compound: Nc1ccccc1NC(=O)c1ccc(CNC(=O)OCc2cccnc2)cc1 [entinostat]
Procedure, shortened: as §1

vorinostat = compound: O=C(CCCCCCC(=O)Nc1ccccc1)NO [vorinostat]
Procedure, shortened: as §1

citarinostat = compound: O=C(CCCCCCNC(=O)c1cnc(N(c2ccccc2)c2ccccc2Cl)nc1)NO [citarinostat]
Procedure, shortened: as §1

silmitasertib = compound: O=C(O)c1ccc2c(c1)nc(Nc1cccc(Cl)c1)c1ccncc12 [silmitasertib]
Procedure, shortened: as §1

[5] = compound: O=C1NC(=O)C(c2cnc3ccccn23)=C1c1cn2c3c(cc(F)cc13)CN(C(=O)N1CCCCC1)CC2
Procedure, shortened: as §1

[6] = compound: c1cc(OCCN2CCCCC2)cc(-c2n[nH]c3ccc(-c4nnc[nH]4)cc23)c1
Procedure, shortened: as §1

Measured: log2 fold change

SERPINF2 (UniProt P08697)
inactive: [1] -0.205 | [2] 0.029 | [3] 0.059 | [4] 0.061 | entinostat 0.017 | vorinostat 0.323 | citarinostat 0.128 | silmitasertib 0.165 | [5] 0.065 | [6] 0.429

SENP6 (UniProt Q9GZR1)
inactive: [1] 0.011 | [2] -0.009 | [3] -0.073 | [4] -0.023 | entinostat -0.019 | vorinostat -0.021 | citarinostat 0.04 | silmitasertib -0.118 | [5] 0.027 | [6] -0.049

SEPTIN2 isoform 2 (UniProt Q15019)
inactive: [1] -0.053 | [2] -0.011 | [3] 0.005 | [4] -0.034 | entinostat -0.032 | vorinostat -0.033 | citarinostat 0.005 | silmitasertib -0.001 | [5] -0.043 | [6] -0.043

SERPINB1 (UniProt P30740)
inactive: [1] 0.004 | [2] -0.044 | [3] -0.043 | [4] -0.04 | entinostat 0.02 | vorinostat 0.026 | citarinostat 0.01 | silmitasertib -0.021 | [5] -0.051 | [6] -0.008

SEC62 (UniProt Q99442)
inactive: [1] -0.047 | [2] 0.092 | [3] 0.058 | [4] 0.007 | entinostat -0.012 | vorinostat -0.086 | citarinostat -0.052 | silmitasertib 0.005 | [5] -0.098 | [6] 0.004

SGTA (UniProt O43765)
inactive: [1] 0.008 | [2] 0.01 | [3] -0.073 | [4] -0.056 | entinostat 0.017 | vorinostat -0.008 | citarinostat 0.048 | silmitasertib 0.014 | [5] -0.077 | [6] 0.022

SEMA4B (UniProt Q9NPR2)
inactive: [1] -0.003 | [2] 0.09 | [3] -0.174 | [4] -0.024 | entinostat 0.023 | vorinostat -0.021 | citarinostat 0.017 | silmitasertib 0.077 | [5] -0.11 | [6] -0.002

SEPTIN7 (UniProt Q16181)
inactive: [1] -0.029 | [2] 0.036 | [3] -0.036 | [4] 0.041 | entinostat -0.004 | vorinostat -0.035 | citarinostat 0.011 | silmitasertib -0.033 | [5] -0.061 | [6] -0.008

SHMT2 (UniProt P34897)
inactive: [1] 0.012 | [2] -0.024 | [3] 0.001 | [4] -0.013 | entinostat -0.031 | vorinostat -0.045 | citarinostat -0.006 | silmitasertib -0.019 | [5] -0.013 | [6] -0.006

SEPHS2 (UniProt Q99611)
inactive: [1] 0.078 | [2] 0.022 | [3] 0.031 | [4] 0.037 | entinostat 0.01 | vorinostat 0.093 | citarinostat 0.124 | silmitasertib 0.052 | [5] 0.091 | [6] 0.176

SEPSECS (UniProt Q9HD40)
inactive: [1] 0.068 | [2] 0.05 | [3] 0.001 | [4] 0.099 | entinostat 0.009 | vorinostat -0.046 | citarinostat 0.011 | silmitasertib 0.006 | [5] -0.025 | [6] 0.011

SF1 isoform 5 (UniProt Q15637)
inactive: [1] -0.018 | [2] -0.004 | [3] 0.033 | [4] 0.034 | entinostat -0.007 | vorinostat -0.028 | citarinostat 0.024 | silmitasertib -0.026 | [5] 0.008 | [6] -0.039

SF3B1 (UniProt O75533)
inactive: [1] 0.02 | [2] -0.06 | [3] -0.026 | [4] -0.013 | entinostat 0.063 | vorinostat 0.127 | citarinostat 0.011 | silmitasertib 0 | [5] 0.037 | [6] -0.091

SH3GL1 (UniProt Q99961)
inactive: [1] -0.049 | [2] -0.088 | [3] -0.106 | [4] -0.032 | entinostat 0.143 | vorinostat 0.082 | citarinostat 0.068 | silmitasertib 0.028 | [5] 0.006 | [6] -0.041

SEPTIN10 isoform 2 (UniProt Q9P0V9)
inactive: [1] 0.026 | [2] 0.038 | [3] 0.09 | [4] -0.06 | entinostat 0.005 | vorinostat -0.012 | citarinostat -0.014 | silmitasertib 0.013 | [5] -0.076 | [6] -0.026

SGPL1 (UniProt O95470)
inactive: [1] -0.01 | [2] 0.004 | [3] -0.005 | [4] 0.144 | entinostat 0 | vorinostat -0.014 | citarinostat 0.009 | silmitasertib -0.034 | [5] 0.064 | [6] -0.134

SFT2D2 (UniProt O95562)
inactive: [1] -0.076 | [2] 0.198 | [3] 0.017 | [4] 0.024 | entinostat 0.034 | vorinostat -0.104 | citarinostat -0.074 | silmitasertib 0.029 | [5] -0.067 | [6] 0.082

SEC61A2 (UniProt Q9H9S3)
inactive: [1] 0.038 | [2] -0.013 | [3] -0.033 | [4] 0.021 | entinostat 0.002 | vorinostat -0.043 | citarinostat 0.027 | silmitasertib 0.01 | [5] 0.006 | [6] -0.079

Two entries drawn at random from those above:
SGTA (UniProt O43765)
inactive: [1] 0.008 | [2] 0.01 | [3] -0.073 | [4] -0.056 | entinostat 0.017 | vorinostat -0.008 | citarinostat 0.048 | silmitasertib 0.014 | [5] -0.077 | [6] 0.022

SEPTIN10 isoform 2 (UniProt Q9P0V9)
inactive: [1] 0.026 | [2] 0.038 | [3] 0.09 | [4] -0.06 | entinostat 0.005 | vorinostat -0.012 | citarinostat -0.014 | silmitasertib 0.013 | [5] -0.076 | [6] -0.026

The results go on:

SIN3A (UniProt Q96ST3)
inactive: [1] -0.02 | [2] -0.017 | [3] -0.054 | [4] -0.143 | entinostat 0.053 | vorinostat 0.164 | citarinostat 0.074 | silmitasertib 0.103 | [5] 0.054 | [6] -0.027

SH3BGRL2 (UniProt Q9UJC5)
inactive: [1] 0.022 | [2] -0.045 | [3] 0.024 | [4] -0.06 | entinostat -0.061 | vorinostat -0.001 | citarinostat 0.022 | silmitasertib 0.017 | [5] -0.127 | [6] -0.092

SEPTIN9 (UniProt Q9UHD8)
inactive: [1] -0.013 | [2] -0.061 | [3] -0.052 | [4] -0.021 | entinostat 0.011 | vorinostat -0.004 | citarinostat 0.035 | silmitasertib -0.029 | [5] -0.084 | [6] -0.025

SFT2D1 (UniProt Q8WV19)
inactive: [1] -0.036 | [2] -0.078 | [3] -0.077 | entinostat -0.001 | citarinostat 0.058 | silmitasertib 0.02 | [6] -0.033

SERPINA12 (UniProt Q8IW75)
inactive: [1] 0.066 | [3] -0.077 | [4] 0.24 | entinostat 0.063 | citarinostat -0.183 | silmitasertib 0.101 | [5] -0.265 | [6] 0.997

SEPTIN4 isoform 4 (UniProt O43236)
inactive: [1] 0.321 | [2] 0.193 | [3] -0.035 | [4] 0.204 | entinostat 0.182 | vorinostat -0.011 | citarinostat 0.312 | silmitasertib 0.001 | [5] 0.283 | [6] -0.028

SFT2D3 (UniProt Q587I9)
inactive: [1] -0.006 | [3] 0.015 | [4] -0.006 | entinostat -0.079 | vorinostat 0.063 | citarinostat 0.13 | silmitasertib 0.046 | [5] 0.01 | [6] -0.011

SFSWAP isoform 2 (UniProt Q12872)
inactive: [1] -0.054 | [2] -0.031 | [3] 0.051 | [4] -0.164 | entinostat 0.063 | vorinostat -0.052 | citarinostat 0.14 | silmitasertib -0.038 | [5] -0.076 | [6] -0.228

SET isoform 2 (UniProt Q01105)
inactive: [1] 0.044 | [2] -0.006 | [3] 0 | [4] 0.044 | entinostat 0 | vorinostat -0.039 | citarinostat 0.005 | silmitasertib -0.015 | [5] 0.012 | [6] -0.002

SEPTIN5 (UniProt G3XAH0)
inactive: [1] 0.008 | [2] 0.004 | [3] -0.142 | [4] 0.016 | entinostat -0.031 | vorinostat 0.16 | silmitasertib -0.023 | [5] -0.028

SKA3 (UniProt Q8IX90)
inactive: [1] 0.052 | [3] 0.139 | [4] -0.194 | entinostat 0.014 | vorinostat 0.096 | citarinostat -0.02 | silmitasertib 0.071 | [5] 0.131 | [6] -0.014
